Data as given in PMC4877375.

Amino acid sequences for entries named in this document (tags omitted).
UniProt P01123: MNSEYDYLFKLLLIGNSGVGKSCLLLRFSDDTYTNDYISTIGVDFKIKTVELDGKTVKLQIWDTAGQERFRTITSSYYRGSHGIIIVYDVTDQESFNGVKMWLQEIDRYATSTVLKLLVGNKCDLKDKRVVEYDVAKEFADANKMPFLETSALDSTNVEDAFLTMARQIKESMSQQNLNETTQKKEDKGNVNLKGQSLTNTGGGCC
UniProt P38682: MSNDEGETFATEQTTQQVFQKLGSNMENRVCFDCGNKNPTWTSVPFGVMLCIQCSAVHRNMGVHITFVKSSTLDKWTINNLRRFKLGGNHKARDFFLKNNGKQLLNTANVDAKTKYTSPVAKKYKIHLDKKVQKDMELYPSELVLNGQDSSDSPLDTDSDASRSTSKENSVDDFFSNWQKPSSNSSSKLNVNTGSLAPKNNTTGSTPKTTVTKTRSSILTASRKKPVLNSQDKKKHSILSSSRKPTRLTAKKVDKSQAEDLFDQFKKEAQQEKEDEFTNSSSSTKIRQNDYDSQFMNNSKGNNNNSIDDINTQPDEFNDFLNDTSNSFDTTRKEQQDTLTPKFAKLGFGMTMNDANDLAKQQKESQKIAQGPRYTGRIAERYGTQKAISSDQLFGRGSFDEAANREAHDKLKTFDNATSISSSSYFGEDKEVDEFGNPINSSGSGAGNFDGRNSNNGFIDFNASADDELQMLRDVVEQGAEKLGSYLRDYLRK
UniProt P38261: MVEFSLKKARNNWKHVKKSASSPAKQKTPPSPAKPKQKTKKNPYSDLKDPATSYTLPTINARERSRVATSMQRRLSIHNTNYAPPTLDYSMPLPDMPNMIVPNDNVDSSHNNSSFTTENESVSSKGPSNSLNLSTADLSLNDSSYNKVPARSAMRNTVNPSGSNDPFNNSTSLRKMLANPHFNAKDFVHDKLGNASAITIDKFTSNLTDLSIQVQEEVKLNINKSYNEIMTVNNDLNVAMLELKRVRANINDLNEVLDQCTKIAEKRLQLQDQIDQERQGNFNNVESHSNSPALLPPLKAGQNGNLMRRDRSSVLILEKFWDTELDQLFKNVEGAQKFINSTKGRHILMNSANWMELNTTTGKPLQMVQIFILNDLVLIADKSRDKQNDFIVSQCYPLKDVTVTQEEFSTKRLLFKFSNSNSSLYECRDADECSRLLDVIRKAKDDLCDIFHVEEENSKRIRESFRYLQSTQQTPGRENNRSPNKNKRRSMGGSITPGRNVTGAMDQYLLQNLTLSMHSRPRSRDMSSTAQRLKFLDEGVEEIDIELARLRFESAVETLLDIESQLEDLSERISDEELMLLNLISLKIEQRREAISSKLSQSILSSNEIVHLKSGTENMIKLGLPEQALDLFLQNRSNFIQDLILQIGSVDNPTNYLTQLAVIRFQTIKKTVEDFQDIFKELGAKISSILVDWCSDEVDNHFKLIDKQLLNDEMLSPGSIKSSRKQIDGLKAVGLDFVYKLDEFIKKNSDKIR
UniProt P32867: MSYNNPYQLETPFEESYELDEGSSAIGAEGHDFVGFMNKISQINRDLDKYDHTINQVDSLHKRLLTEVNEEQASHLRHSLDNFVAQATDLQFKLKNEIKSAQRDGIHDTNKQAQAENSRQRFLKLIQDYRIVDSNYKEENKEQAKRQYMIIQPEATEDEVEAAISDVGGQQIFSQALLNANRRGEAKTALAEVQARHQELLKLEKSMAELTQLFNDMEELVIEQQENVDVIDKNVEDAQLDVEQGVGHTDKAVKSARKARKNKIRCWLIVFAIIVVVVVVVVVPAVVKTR
UniProt P40357: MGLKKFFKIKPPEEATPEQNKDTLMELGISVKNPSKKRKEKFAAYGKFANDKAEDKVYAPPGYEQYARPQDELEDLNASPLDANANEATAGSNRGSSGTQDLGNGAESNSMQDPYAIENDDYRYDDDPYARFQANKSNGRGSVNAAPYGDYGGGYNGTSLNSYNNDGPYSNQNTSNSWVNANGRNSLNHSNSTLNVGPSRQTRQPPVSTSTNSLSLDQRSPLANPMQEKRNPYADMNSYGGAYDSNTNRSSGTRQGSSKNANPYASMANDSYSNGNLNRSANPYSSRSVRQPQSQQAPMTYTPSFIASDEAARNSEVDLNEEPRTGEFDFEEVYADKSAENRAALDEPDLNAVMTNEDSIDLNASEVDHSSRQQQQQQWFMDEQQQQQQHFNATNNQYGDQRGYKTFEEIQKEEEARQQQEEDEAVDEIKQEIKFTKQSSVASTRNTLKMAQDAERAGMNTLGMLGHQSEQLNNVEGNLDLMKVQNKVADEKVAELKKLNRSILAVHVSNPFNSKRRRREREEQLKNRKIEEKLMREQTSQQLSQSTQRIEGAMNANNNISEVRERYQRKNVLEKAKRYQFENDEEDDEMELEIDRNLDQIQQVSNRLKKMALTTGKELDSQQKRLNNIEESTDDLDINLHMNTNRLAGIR
UniProt P38631: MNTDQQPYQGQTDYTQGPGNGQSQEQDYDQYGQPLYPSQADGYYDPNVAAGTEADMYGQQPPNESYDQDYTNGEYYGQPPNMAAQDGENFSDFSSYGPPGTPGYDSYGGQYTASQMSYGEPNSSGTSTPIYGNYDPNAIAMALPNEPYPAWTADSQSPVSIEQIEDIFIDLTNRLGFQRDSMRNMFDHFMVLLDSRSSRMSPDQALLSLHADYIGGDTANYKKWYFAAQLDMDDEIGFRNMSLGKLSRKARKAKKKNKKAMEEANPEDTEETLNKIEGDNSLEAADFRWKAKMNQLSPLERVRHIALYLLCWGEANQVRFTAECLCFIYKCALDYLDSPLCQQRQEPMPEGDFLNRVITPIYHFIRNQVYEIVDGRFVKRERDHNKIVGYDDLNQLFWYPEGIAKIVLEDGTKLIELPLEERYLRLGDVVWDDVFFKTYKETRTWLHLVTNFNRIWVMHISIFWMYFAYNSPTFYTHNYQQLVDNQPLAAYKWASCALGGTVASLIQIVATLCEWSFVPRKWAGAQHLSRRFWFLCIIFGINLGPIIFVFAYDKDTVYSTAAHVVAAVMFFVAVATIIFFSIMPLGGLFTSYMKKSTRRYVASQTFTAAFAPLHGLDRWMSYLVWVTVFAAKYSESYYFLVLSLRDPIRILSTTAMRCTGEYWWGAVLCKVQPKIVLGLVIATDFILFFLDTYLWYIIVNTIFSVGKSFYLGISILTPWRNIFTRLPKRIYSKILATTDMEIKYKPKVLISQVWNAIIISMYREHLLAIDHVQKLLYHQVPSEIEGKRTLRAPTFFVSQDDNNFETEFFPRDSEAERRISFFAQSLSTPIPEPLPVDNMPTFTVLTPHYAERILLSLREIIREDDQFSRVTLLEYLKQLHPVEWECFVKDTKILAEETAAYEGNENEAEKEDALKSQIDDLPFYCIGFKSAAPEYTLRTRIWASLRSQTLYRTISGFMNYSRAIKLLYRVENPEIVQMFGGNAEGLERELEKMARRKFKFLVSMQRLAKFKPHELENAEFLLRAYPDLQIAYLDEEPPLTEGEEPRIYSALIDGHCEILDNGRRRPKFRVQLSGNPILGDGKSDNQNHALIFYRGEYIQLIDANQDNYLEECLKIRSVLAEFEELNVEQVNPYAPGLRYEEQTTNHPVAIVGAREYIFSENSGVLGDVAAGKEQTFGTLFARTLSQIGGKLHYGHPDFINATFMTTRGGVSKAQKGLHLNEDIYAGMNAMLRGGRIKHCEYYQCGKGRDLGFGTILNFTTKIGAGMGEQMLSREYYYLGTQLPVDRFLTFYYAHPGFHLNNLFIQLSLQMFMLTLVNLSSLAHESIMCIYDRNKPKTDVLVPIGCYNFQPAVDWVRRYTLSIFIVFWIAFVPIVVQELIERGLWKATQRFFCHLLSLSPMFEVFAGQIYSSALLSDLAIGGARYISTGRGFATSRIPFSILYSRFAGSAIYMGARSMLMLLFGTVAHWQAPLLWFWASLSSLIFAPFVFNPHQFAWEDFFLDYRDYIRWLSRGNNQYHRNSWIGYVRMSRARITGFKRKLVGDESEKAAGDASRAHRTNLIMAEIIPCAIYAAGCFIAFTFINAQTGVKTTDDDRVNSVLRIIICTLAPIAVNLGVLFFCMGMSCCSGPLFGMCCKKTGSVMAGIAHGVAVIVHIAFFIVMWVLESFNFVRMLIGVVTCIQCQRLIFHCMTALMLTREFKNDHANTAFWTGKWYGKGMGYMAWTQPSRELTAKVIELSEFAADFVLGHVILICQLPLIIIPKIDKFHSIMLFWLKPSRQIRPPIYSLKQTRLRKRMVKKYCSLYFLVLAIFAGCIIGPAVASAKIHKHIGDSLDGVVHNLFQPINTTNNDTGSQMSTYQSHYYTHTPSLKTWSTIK

T1: Trs120p-TAP (yeast (endogenous in the yeast strain)) (UniProt Q04183)
T1 sequence: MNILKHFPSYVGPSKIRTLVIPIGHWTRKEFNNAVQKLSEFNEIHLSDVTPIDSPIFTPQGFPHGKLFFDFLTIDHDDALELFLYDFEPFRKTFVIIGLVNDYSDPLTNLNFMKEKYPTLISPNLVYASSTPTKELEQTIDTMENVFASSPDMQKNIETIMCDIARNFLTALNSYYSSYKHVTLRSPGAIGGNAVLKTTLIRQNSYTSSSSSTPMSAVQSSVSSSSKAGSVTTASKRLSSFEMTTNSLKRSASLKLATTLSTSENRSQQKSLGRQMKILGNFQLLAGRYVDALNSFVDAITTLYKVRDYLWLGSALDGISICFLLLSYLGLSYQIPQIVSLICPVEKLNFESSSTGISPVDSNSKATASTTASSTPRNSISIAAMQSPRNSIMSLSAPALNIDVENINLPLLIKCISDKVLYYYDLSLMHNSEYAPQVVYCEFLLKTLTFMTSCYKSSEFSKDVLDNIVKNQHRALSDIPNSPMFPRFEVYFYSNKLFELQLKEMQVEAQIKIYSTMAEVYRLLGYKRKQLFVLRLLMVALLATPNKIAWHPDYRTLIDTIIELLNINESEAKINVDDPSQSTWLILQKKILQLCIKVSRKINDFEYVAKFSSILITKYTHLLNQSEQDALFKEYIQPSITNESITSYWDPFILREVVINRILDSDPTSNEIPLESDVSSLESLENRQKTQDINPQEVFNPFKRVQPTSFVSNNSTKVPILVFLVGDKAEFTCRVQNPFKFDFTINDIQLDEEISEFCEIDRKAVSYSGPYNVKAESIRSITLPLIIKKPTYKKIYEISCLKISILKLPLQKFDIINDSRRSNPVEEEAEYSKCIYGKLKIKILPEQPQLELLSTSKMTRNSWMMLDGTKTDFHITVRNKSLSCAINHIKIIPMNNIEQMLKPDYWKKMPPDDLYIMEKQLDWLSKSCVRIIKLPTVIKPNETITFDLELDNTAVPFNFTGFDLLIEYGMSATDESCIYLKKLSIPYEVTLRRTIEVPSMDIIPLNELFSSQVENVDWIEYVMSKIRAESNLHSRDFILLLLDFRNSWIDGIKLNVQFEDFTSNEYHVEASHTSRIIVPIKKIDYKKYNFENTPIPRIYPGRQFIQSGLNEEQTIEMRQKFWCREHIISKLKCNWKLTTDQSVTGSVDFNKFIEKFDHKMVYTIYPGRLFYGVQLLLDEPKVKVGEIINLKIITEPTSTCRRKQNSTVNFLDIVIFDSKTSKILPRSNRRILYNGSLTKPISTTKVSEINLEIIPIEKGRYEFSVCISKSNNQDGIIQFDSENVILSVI

B1: GAS1 (protein, UniProt P22146 23-528)
chain: DDVPAIEVVGNKFFYSNNGSQFYIRGVAYQADTANETSGSTVNDPLANYESCSRDIPYLKKLNTNVIRVYAINTTLDHSECMKALNDADIYVIADLAAPATSINRDDPTWTVDLFNSYKTVVDTFANYTNVLGFFAGNEVTNNYTNTDASAFVKAAIRDVRQYISDKNYRKIPVGYSSNDDEDTRVKMTDYFACGDDDVKADFYGINMYEWCGKSDFKTSGYADRTAEFKNLSIPVFFSEYGCNEVTPRLFTEVEALYGSNMTDVWSGGIVYMYFEETNKYGLVSIDGNDVKTLDDFNNYSSEINKISPTSANTKSYSATTSDVACPATGKYWSAATELPPTPNGGLCSCMNAANSCVVSDDVDSDDYETLFNWICNEVDCSGISANGTAGKYGAYSFCTPKEQLSFVMNLYYEKSGGSKSDCSFSGSATLQTATTQASCSSALKEIGSMGTNSASGSVDLGSGTESSTASSNASGSSSKSNSGSSGSSSSSSSSSASSSSSSKKN
B2: Trs130p (protein, UniProt Q03660 1-1102)
chain: MDKEIYCGSVPVSYFDPFDLFESLRPEFQQILPLDNIHWKAFDGTVRTVNRLPIELIPEGRGEADKSNDEQPFIRFLIVNCISIDQYRAKVRPLVRQWLPNLESVSSSTGEKMIYKPIILLYANSEVVDSNLFKSVSLMEKFGKDFPHVQTLEVRSVYRSPKERQEFWNQFSQKIKASVLSIFQKRLTHLQHSLANLQKGNNFEEQLLTREKLYELYVVFNILEDASLELQKIKKEILRRNMNMPDGKLQVPFESSSKSDESLGSIIIEGTLDKFQLHKYFFIRRLRLLKLEDQTLTAFVGAFQLIKNFIESISIEYRKSVRLLEFKHYFITSMLSYFEFENVSNPLLCEIKAELLMLKRDNWVQGVMATSGYRLMDKNYPNSDVKYKFDLLKETFVDETVFQENFLTLTKEILSLFNKCEGKRQRIVDILSIEIGLLYYQGKKYEEAVSLFLSCYEYYTQTNWNSIGLKILQVFIDSLSHCPKLDVLQIDGESVSASAVLTNAFLNILKLCKDNDSKEIWWKKFMDLQMKNNIHLMYPLDGLFEVTLNSKVHLARANVSAIEVNLKSYGFPEDISTKTMRLSLKNMGGDVIVFGASDFLLKKGENKLILECRDIMYGEFSLLSFEIIVEGITFVKEFPENQDEFIVVPEIYCKESTKVLVKQAHNLNLGEYALELKSVQSDALESLQVEVEVQKNIGNMKNLPVSFSMDEIQARKRYNTPFENVRLEYYLLDQITAFDLIIKTSFTKKNDQGTFGETKKVRIQCYLQLSVSVEDIFKKDIFFFKFLLNSSVREEPVILYSSELSAPDTRNDYNIRGDYIATTPALITFDGNESFINCYEITANNNFDSKDIFNLKVRYNTLKEQLDCFITDAVLIEGDVEWFILFEKWKTFWELEILKKLKYDYDAFKENRIIRLLKTSIDLNKTKSKIRNLCIEKAVLDKILICLNKVSRGIAVCNTDMDEYVRNLVPKQLTVPVQLPGFEQFFHVQFEQMETSHDALHDTIATIGNSLSYTVIVENLSGQWGQDVIDDGGYIFEILSSNEWLIHGQKRCAIKEKRKEFEVHLIPLKKGYLNFPRVEITNINGKSCRVDHSNAFESILIF
B3: Trs33p (protein, UniProt Q99394 1-268)
chain: MSSTHSNNVGHPQSSPQGPLTEQQRAQQQYQIFENSLPKVSQSVYQMLLNEMVPLAMGIERQISGDVISSDSNVTSENGNINNMIKRLKIEEHHTVDIIRSHNLIHELYKADEEEKEKVLARLRNIGFQIGLKLSELLIFSNNPNLKFKEMDLLLIMKFICRDVWKQIFGKQIDNLKTNHRGTFYLLDYDYRPIQSFSLEEDAKNEELKMIEPFLEIPVGIIRGVLSSLGYSSEEVICLASFIDRPTDRPKTAFPKGVSFHVQVTMPQ
B4: Bet3p (protein, UniProt P36149 1-193)
chain: MVSTTQSRSLKAMGEEIWKNKTEKINTELFTLTYGSIVAQLCQDYERDFNKVNDHLYSMGYNIGCRLIEDFLARTALPRCENLVKTSEVLSKCAFKIFLNITPNITNWSHNKDTFSLILDENPLADFVELPMDAMKSLWYSNILCGVLKGSLEMVQLDCDVWFVSDILRGDSQTEIKVKLNRILKDEIPIGED
B5: TRS23 (protein, UniProt Q03784 1-219)
chain: MAIETILVINKSGGLIYQRNFTNDEQKLNSNEYLILASTLHGVFAIASQLTPKALQLTQQTNIENTIPYIPYVGMSSNRSDTRNGGGNNNKHTNNEKLGSFKGDDFFKEPFTNWNKSGLRQLCTDQFTMFIYQTLTGLKFVAISSSVMPQRQPTIATTDKPDRPKSTSNLAIQIADNFLRKVYCLYSDYVMKDPSYSMEMPIRSNLFDEKVKKMVENLQ
B6: AKL1 (protein, UniProt P38080 1-1108)
chain: MSITNGTSRSVSAMGHPAVERYTPGHIVCVGTHKVEVVNYLAEGGFAQIYVVKFLEYLNEFDNTASVPLKIGDVACLKRVLVQDENGLNEMRNEVEVMKKLKGAPNIVQYFDSNASRRRDGVQGFEVLLLMELCPNKSLLDYMNQRLSTKLTEAEIVKIMYDVALSISQMHYLPVSLIHRDIKIENVLVDAKNNFKLADFGSTSTCFPIVTTHQDIALLTQNIYVHTTPQYRSPEMIDLYRCLPINEKSDIWALGVFLYKLLFFTTPFEMTGQFAILHSKYEFPVNKYSSKLINLIIIMLAENPNLRPNIYQVLYHLCEILNVEVPIEDKYAEGAYNFSKYTQFQNKLQNVQLQMYQLQQKKIMQNNKLSDSEENLLNDMFLSSFEISSKLPMNASDGHAAVSRIPSQNVGQELEEEKESQSDQRKSTLSEDKSSRTTSNANSSGTANNPQEINTIQSPGIEDKSIFENKTPGELYYPSVSELDTYLDKELVKQSSDPTISEQSPRLNTQSLPQRQKSTSSYSSGGRSMKSTSYGAATIGSDEALANEKTAGINKMKQHKSNNPFPKMNVAYHSTNELSNDASNFFLEEQQQGQRYQQAQNQTGTQGNTFPDESQYQSRVEQQQQQQDQPKGPANYSQRNFYTGRDRSNKPMQLGGTIAGDSGNRRVNFQNISQNYATNSQSGYLPSQNSPAIPMVRPVISMNQQQAQQIQAQQLQAQQMQAKQQMQAKQQMQVQQQLQVQQQMQIQNANNNGTYVSDRTNHTTEDMRNAQGGEPPILAGNSANEPMHSSSKNEALLIELSPLKEDAGKQSFQDTNEPQTGGIEDAGGSGTIKGSNNNRNGVLNLSLNEMDLSRDDTGAAVSSFSSSSSSASIQQAKLSGRKGSSKRNNYSTDELGDSMVSSESIDIDLDDARRGKTAERRPLHNERGHKDQARSSDASKSNQFKSKDFSSVSTRQPRQSLDLNFQEVNLSSPTLTQEHRNKNDSPAPNSHHSYRVSPHASTAITENKRHSTGHELSTRSNGKHETHRTGSKQRHDLERYRHSKDKDSNSSITISTSTPSEMRKSFARARQSLDLERVRREAMASSASSSGGSNGKRRSFFSVFRSEK
B7: SYP1 (protein, UniProt P25623 1-870)
chain: MTEQRTKYADSILTTKSPYEATETIRIRLSQVKLLNKDFYLLFKELANLKRNYAQQLRKIIAENEDITKILNAQMIESNVLTPQEMSAFRFNSLGELRNVWDTVIEELKSDLKSSTEYYNTLDQQVVRELKESVENNTSWRESKDLHSKLSKNAASIEHYSKNNENSSHLEEARRQWDQQSPYLFELFETIDYNRLDTLKNCMLRFQTSFSDYLLNTTKECETVMTKFLAFEPQSEIDRFAKDASQYNFQLSSSSKEVVPNNASPASATGARPVSVSNGAANTEREKKSPQKDKRKSAFGNIGHRLASASSSLTHNDLMNNEFSDSTNNSSLKSKKSSHTLRSKVGSIFGRNKTKNKRQQQSSSNSHIQASITETPNNSSTRVSSTATSSIYQKQRRPTYSSSKSNNWTPGEASDTPPLPPHATPKNVDAPVTADTPPAQTFTPSEVPPSTPQQSSPPTAKEPDSSNLPKTVPISISQPPLQPQSKTKPLPVEPASPSISLPTATVDNQPSGQVDSRPLHIRAPALPPSRKQNFIHNRDSQLYDSLPNHGSGATPTSSSLSSIPQERPVSTLSSQITGELRELNPQATGSSTSLVGQSLFQHSSLDTSQFGLNASIAEVLNASFKDGMLQNSQLIGEIALNYLPNSVMNSPLPIGINLRINNGAKFEKVILNQAFIERVAPEEFKVNPSFIDSRTLGAIKYSIKEPIAPIVIHPVWRFESHQASVVLTVKMSPSLPDEISQIVIEDLVVFVNIDGANATSALSKPQGSFSKEKKRITWRFKEPVVLTRNGEGQRLIARFITDGLAHESAKGVITKFTISETDNVALPHSGAGSGITLTCQELDENNPFGGEWLDVNTKRTLTTGNYHGLA

Each molecule was assayed against T1, Trs120p-TAP (yeast (endogenous in the yeast strain)) (assay: affinity purification with mass spectrometry; Trs120p-TAP purified from yeast lysate (1% CHAPS, 100 mM NaCl) on IgG beads, TEV elution, calmodulin beads, EGTA elution; gel bands or total eluate analysed by MS/MS).

binding	Molecule
no binding	Ypt1p (from UniProt P01123 1-206)
binds	Glo3p (from UniProt P38682 1-493)
binds	EXO89 (from UniProt P38261 1-753)
binds	SSO1 (from UniProt P32867 1-290)
binds	SEC9 (from UniProt P40357 1-651)
binds	FKS1 (from UniProt P38631 1-1876)
binds	B1
binds	B2
binds	B3
binds	B4
binds	B5
binds	B6
binds	B7

Results are given in words; binding and its absence hold for the method and conditions named. Binding seen in cells or lysates may run through a third protein. These calls come from enrichment with a bait or labelling near it, and not all partners need be listed. No binding means not detected with the bait.
